# Laboratory results published in PubChem BioAssay AID504834 (National Center for Advancing Translational Sciences (NCATS), 2011).
# The campaign covered roughly 320,000 compounds. About 22,000 (6.9%) were called active. Inconclusive results, whose numbers are uncertain, are shown with a selection of clear calls. Calls follow the shape of the dose curve; as a rule, active = well fitted inhibition curve with a large enough effect; inconclusive = small, poorly fitted or top-dose-only effect, or another doubt; inactive = no such curve, though single readings can be large or run the other way. Potencies of inconclusive entries are doubtful fits and often do not repeat.
# Test: Primary qHTS for delayed death inhibitors of the malarial parasite plastid, 96 hour incubation
# Conditions: P. falciparum luciferase reporter growth; series mostly up to 28.7 µM
# In short: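 Delayed-death screen, second-generation endpoint: infected erythrocytes, 2% hematocrit, 0.05% parasitemia final; 96 hours at 37 C, 5% CO2; luciferase detection reagent; luminescence decrease equals reduced growth.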
# Potency is read from the fitted curve at half-maximal effect.
row,SMILES,Potency
1,CC1CC(C)CN(S(=O)(=O)c2cc3c(cc2Cl)NC(=O)CO3)C1 (centres undefined),"inconclusive: 0.294 µM [inhibitor, full curve, poor fit]"
2,CC(Sc1nnc(C2CC2)n1C1CC1)C(=O)Nc1ccc(C(N)=O)cc1 (centres undefined),"inconclusive: 3.29 µM [inhibitor, single point]"
3,CC(C)Cc1nnc(NC(=O)CCC(=O)N2CCN(Cc3ccc(F)cc3)CC2)s1,"inconclusive: 18.5 µM [inhibitor, partial curve, poor fit]"
4,COc1ccccc1N1CCN(C(=O)COc2cc(C)cc(C)c2)CC1,inactive
5,Cc1c(NC(=O)c2ccccc2NC(=O)c2ccccc2)cccc1C(=O)O,inactive
6,Cc1cc(C)c(NC(=O)/C=C\C(=O)O)c(Cl)c1,inactive
7,O=[N+]([O-])c1ccc(/C=N/n2cnc3ccccc32)s1,"inconclusive: 2.08 µM [inhibitor, full curve, poor fit]"
8,Cn1ccnc1C(=O)c1cc(SCC(=O)NCc2ccccc2)nc2ccccc12,"inconclusive: 0.0586 µM [inhibitor, full curve, poor fit]"
9,O=C(CCC(=O)c1ccccc1)NC1CCCN(Cc2ccccc2F)C1 (centres undefined),"inconclusive: 3.29 µM [inhibitor, partial curve, poor fit]"
10,O=C(Cn1c(=O)oc2ccccc21)c1ccccc1,inactive
11,Cc1ccc(C(=O)N2CCOCC2)cc1S(=O)(=O)N1CCCCC1,"inconclusive: 13.1 µM [inhibitor, single point]"
12,Cn1c(=O)c2c(nc(NCc3ccc4c(c3)OCO4)n2Cc2ccc(F)cc2)n(C)c1=O,active: 13.1 µM
13,CSC(=NC#N)N1CCN(C(=NC#N)SC)CC1,inactive
14,CC(C)C(=O)Nc1cccc(NC(=O)c2ccc([N+](=O)[O-])cc2Cl)c1,"inconclusive: 9.28 µM [inhibitor, single point]"
15,C/C(=N\NC(=S)NC1CCCCC1)c1ccc(Cl)c(Cl)c1,active: 4.15 µM
16,CC(C)OCCCn1c(SC(C)C(=O)NCC2CCCO2)nc2cc(Cl)ccc2c1=O (centres undefined),"inconclusive: 10.4 µM [inhibitor, single point]"
17,CC(=O)c1ccc([C@@H]2C[C@]34CN(Cc5cccc(C(F)(F)F)c5)S(=O)(=O)[C@H]3C[C@H]2O4)cc1,"inconclusive: 13.1 µM [inhibitor, single point]"
18,Cc1cccc(-n2ncc3c2CCCC3NC(=O)CCN2Cc3ccccc3C2=O)c1C (centres undefined),"inconclusive: 6.57 µM [inhibitor, single point]"
19,O=C(CCN1C(=O)c2ccncc2C1=O)Nc1ccc2c(c1)OCCO2,"inconclusive: 0.233 µM [inhibitor, partial curve, poor fit]"

# An excerpt of these results, with tabs:
row	SMILES	Potency
3	CC(C)Cc1nnc(NC(=O)CCC(=O)N2CCN(Cc3ccc(F)cc3)CC2)s1	inconclusive: 18.5 µM [inhibitor, partial curve, poor fit]
17	CC(=O)c1ccc([C@@H]2C[C@]34CN(Cc5cccc(C(F)(F)F)c5)S(=O)(=O)[C@H]3C[C@H]2O4)cc1	inconclusive: 13.1 µM [inhibitor, single point]
